No constants are given. Whether binding was seen depends on the method and setting. Some binding calls cover weakened binding; strength is not graded here.
How the values were obtained:
Experiment in all cases: tandem affinity chromatography + SEC; subunits co-overexpressed in budding yeast; complexes purified from interphase cell extracts by the His12 tag on Brn1 and the triple StrepII tag on Smc4, followed by a gel filtration step
Brn1 (S. cerevisiae) = target: T1, Brn1 (S. cerevisiae) (UniProt P38170)
T1 sequence: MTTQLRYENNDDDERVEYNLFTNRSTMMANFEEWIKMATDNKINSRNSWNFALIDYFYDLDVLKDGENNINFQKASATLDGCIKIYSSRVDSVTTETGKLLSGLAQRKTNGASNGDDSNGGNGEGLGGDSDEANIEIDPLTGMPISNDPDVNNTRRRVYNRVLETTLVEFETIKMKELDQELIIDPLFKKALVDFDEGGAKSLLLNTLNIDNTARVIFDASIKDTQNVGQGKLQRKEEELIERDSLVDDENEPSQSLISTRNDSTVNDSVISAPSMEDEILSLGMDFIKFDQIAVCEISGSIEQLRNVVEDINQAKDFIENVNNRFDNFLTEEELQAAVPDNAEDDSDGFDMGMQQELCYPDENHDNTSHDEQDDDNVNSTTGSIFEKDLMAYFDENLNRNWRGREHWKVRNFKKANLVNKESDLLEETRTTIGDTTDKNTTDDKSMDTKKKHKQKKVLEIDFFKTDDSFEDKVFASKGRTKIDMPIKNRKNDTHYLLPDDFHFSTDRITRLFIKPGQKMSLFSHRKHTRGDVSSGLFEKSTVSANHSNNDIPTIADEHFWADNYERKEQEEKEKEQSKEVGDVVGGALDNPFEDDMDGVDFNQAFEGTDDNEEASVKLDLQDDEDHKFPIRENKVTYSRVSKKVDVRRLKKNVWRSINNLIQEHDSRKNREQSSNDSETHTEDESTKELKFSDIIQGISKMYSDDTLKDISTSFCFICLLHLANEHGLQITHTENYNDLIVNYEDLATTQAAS

[1] = target: T2, Brn1 K409D, R411D, K414D, K451D, K452D, K456D, K457D (S. cerevisiae) (UniProt P38170)
T2 sequence: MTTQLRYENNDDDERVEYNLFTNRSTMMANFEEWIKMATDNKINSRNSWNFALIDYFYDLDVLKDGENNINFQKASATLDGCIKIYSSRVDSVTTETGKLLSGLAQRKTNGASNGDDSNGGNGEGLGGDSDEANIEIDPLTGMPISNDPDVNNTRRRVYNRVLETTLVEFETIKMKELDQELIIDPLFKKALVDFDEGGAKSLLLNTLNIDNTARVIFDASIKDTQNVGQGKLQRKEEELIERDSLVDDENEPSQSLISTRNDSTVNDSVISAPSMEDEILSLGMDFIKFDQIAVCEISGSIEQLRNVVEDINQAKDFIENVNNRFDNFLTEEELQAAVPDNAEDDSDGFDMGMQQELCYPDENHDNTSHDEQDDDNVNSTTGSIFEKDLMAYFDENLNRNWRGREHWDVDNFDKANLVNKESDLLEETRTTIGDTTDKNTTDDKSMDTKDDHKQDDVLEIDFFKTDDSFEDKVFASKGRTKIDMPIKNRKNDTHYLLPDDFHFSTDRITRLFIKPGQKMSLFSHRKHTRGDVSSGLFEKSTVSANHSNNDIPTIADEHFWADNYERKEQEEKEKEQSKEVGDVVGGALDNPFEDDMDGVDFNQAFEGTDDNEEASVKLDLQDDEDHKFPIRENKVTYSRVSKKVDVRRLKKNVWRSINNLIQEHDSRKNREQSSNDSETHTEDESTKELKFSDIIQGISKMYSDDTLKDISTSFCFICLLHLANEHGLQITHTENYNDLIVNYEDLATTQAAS

Smc4 (S. cerevisiae) = target: T3, Smc4 (S. cerevisiae) (UniProt Q12267)
T3 sequence: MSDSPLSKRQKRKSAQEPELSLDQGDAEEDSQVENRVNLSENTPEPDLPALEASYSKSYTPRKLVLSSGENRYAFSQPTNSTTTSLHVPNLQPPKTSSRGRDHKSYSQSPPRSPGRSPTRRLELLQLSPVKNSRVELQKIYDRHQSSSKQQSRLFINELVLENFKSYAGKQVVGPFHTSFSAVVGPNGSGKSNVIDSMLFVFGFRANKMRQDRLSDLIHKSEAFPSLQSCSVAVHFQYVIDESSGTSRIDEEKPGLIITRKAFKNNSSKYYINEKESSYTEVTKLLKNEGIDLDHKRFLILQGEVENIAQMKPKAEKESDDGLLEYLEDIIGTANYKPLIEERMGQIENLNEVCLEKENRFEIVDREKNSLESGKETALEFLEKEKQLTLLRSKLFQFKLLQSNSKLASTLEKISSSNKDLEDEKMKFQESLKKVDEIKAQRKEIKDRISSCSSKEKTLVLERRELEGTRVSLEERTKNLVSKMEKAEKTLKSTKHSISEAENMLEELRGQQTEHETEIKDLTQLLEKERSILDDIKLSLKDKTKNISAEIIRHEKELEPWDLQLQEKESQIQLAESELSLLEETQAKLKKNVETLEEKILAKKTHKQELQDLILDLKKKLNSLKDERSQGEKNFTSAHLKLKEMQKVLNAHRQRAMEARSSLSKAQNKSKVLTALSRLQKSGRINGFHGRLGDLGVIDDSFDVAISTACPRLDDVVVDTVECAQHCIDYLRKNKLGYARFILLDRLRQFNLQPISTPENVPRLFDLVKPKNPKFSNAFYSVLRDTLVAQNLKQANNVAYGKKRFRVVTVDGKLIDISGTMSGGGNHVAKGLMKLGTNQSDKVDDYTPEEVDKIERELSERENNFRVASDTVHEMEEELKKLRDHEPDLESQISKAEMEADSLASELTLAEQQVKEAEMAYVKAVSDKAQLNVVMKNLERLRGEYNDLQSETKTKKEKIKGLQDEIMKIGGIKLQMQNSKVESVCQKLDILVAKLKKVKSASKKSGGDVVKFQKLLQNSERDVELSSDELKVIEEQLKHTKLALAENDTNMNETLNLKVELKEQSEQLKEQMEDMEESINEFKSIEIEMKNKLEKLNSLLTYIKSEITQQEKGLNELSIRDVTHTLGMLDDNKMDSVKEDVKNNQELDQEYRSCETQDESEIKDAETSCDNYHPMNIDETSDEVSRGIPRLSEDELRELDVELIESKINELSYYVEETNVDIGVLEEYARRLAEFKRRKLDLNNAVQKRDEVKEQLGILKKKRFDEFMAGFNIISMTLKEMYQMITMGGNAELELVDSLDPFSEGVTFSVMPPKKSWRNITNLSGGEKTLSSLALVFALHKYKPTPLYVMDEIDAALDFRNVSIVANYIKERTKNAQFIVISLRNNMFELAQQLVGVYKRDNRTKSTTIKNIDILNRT

[2] = target: T4, Smc4 (S. cerevisiae), Q12267; details: remark: other sources report otherwise
T4 chain: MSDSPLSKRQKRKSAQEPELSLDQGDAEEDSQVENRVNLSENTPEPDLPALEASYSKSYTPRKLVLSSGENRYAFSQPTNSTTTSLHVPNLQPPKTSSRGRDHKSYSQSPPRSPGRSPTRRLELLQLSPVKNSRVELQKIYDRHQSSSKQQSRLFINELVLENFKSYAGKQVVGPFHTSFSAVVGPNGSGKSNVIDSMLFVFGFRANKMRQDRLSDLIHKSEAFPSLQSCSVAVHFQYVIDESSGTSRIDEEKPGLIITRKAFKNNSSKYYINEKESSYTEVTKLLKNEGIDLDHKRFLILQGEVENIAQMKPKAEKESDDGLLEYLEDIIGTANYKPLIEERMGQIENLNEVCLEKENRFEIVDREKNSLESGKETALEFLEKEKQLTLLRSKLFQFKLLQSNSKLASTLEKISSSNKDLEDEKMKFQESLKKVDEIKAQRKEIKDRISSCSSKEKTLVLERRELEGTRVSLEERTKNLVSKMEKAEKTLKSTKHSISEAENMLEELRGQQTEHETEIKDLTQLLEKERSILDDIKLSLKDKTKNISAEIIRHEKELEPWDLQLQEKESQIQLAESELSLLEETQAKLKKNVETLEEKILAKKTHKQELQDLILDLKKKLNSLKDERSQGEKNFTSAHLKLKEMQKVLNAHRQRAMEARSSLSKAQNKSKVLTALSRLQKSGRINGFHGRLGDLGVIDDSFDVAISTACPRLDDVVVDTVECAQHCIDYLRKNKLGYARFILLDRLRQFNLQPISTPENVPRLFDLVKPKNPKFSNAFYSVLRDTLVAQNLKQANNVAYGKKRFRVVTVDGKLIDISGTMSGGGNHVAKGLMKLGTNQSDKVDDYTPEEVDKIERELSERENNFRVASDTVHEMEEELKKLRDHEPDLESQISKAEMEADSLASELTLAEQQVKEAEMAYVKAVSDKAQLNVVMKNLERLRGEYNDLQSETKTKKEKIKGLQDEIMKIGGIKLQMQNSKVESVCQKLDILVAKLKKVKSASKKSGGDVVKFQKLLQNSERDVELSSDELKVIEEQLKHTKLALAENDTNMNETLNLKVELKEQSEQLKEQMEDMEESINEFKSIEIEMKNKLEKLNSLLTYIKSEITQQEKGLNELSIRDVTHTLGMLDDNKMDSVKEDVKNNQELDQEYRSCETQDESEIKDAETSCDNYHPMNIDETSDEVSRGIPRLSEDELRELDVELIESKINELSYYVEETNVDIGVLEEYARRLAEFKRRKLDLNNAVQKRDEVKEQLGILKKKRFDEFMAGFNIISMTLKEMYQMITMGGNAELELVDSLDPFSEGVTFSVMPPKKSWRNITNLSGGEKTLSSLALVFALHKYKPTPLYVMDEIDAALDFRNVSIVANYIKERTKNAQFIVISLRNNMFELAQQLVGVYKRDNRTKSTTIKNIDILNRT

B1: Smc2 (protein, UniProt P38989 1-1170)
chain: MKVEELIIDGFKSYATRTVITDWDPQFNAITGLNGSGKSNILDAICFVLGIASMSTVRASSLQDLIYKRGQAGVTKASVTIVFDNTDKSNSPIGFTNSPQISVTRQVVLGGTSKYLINGHRAPQQSVLQLFQSVQLNINNPNFLIMQGKITKVLNMKPSEILSLIEEAAGTKMFEDRREKAERTMSKKETKLQENRTLLTEEIEPKLEKLRNEKRMFLEFQSTQTDLEKTERIVVSYEYYNIKHKHTSIRETLENGETRMKMLNEFVKKTSEEIDSLNEDVEEIKLQKEKELHKEGTISKLENKENGLLNEISRLKTSLSIKVENLNDTTEKSKALESEIASSSAKLIEKKSAYANTEKDYKMVQEQLSKQRDLYKRKEELVSTLTTGISSTGAADGGYNAQLAKAKTELNEVSLAIKKSSMKMELLKKELLTIEPKLKEATKDNELNVKHVKQCQETCDKLRARLVEYGFDPSRIKDLKQREDKLKSHYYQTCKNSEYLKRRVTNLEFNYTKPYPNFEASFVHGVVGQLFQIDNDNIRYATALQTCAGGRLFNVVVQDSQTATQLLERGRLRKRVTIIPLDKIYTRPISSQVLDLAKKIAPGKVELAINLIRFDESITKAMEFIFGNSLICEDPETAKKITFHPKIRARSITLQGDVYDPEGTLSGGSRNTSESLLVDIQKYNQIQKQIETIQADLNHVTEELQTQYATSQKTKTIQSDLNLSLHKLDLAKRNLDANPSSQIIARNEEILRDIGECENEIKTKQMSLKKCQEEVSTIEKDMKEYDSDKGSKLNELKKELKLLAKELEEQESESERKYDLFQNLELETEQLSSELDSNKTLLHNHLKSIESLKLENSDLEGKIRGVEDDLVTVQTELNEEKKRLMDIDDELNELETLIKKKQDEKKSSELELQKLVHDLNKYKSNTNNMEKIIEDLRQKHEFLEDFDLVRNIVKQNEGIDLDTYRERSKQLNEKFQELRKKVNPNIMNMIENVEKKEAALKTMIKTIEKDKMKIQETISKLNEYKRETLVKTWEKVTLDFGNIFADLLPNSFAKLVPCEGKDVTQGLEVKVKLGNIWKESLIELSGGQRSLIALSLIMALLQFRPAPMYILDEVDAALDLSHTQNIGHLIKTRFKGSQFIVVSLKEGMFANANRVFRTRFQDGTSVVSIM
**Q.** B1 was tested. Which binding (Brn1 (S. cerevisiae)) did it give?
**A.** binds

**Q.** What about the binding [1] of the same binder?
**A.** binds

**Q.** And the binding (Smc4 (S. cerevisiae))?
**A.** binds

B2: Ycg1, Q06680 1-1035 (protein)
chain: MQDPDGIDINTKIFNSVAEVFQKAQGSYAGHRKHIAVLKKIQSKAVEQGYEDAFNFWFDKLVTKILPLKKNEIIGDRIVKLVAAFIASLERELILAKKQNYKLTNDEEGIFSRFVDQFIRHVLRGVESPDKNVRFRVLQLLAVIMDNIGEIDESLFNLLILSLNKRIYDREPTVRIQAVFCLTKFQDEEQTEHLTELSDNEENFEATRTLVASIQNDPSAEVRRAAMLNLINDNNTRPYILERARDVNIVNRRLVYSRILKSMGRKCFDDIEPHIFDQLIEWGLEDRELSVRNACKRLIAHDWLNALDGDLIELLEKLDVSRSSVCVKAIEALFQSRPDILSKIKFPESIWKDFTVEIAFLFRAIYLYCLDNNITEMLEENFPEASKLSEHLNHYILLRYHHNDISNDSQSHFDYNTLEFIIEQLSIAAERYDYSDEVGRRSMLTVVRNMLALTTLSEPLIKIGIRVMKSLSINEKDFVTMAIEIINDIRDDDIEKQEQEEKIKSKKINRRNETSVDEEDENGTHNDEVNEDEEDDNISSFHSAVENLVQGNGNVSESDIINNLPPEKEASSATIVLCLTRSSYMLELVNTPLTENILIASLMDTLITPAVRNTAPNIRELGVKNLGLCCLLDVKLAIDNMYILGMCVSKGNASLKYIALQVIVDIFSVHGNTVVDGEGKVDSISLHKIFYKVLKNNGLPECQVIAAEGLCKLFLADVFTDDDLFETLVLSYFSPINSSNEALVQAFAFCIPVYCFSHPAHQQRMSRTAADILLRLCVLWDDLQSSVIPEVDREAMLKPNIIFQQLLFWTDPRNLVNQTGSTKKDTVQLTFLIDVLKIYAQIEKKEIKKMIITNINAIFLSSEQDYSTLKELLEYSDDIAENDNLDNVSKNALDKLRNNLNSLIEEINERSETQTKDENNTANDQYSSILGNSFNKSSNDTIEHAADITDGNNTELTKTTVNISAVDNTTEQSNSRKRTRSEAEQIDTSKNLENMSIQDTSTVAKNVSFVLPDEKSDAMSIDEEDKDSESFSEVC
**Q.** For B2, which binding [2] is on record?
**A.** binds

From paper PMC5709735, “Real‐time detection of condensin‐driven DNA compaction reveals a multistep binding mechanism” (The EMBO Journal, 2017)
